PubChem BioAssay AID504808 | Drosophila RNAi Screening Center | 2011

Purpose: 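Chromatin factors that keep E2F targets switched off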 (primary screen)
Cell system: Drosophila S2 cells
Knock-down reagent: long dsRNA against Drosophila genes
Detection: 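Firefly luciferase driven by E2F sites, normalised to Renilla luciferase on the same minimal promoter, measured by plate reader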
Reading the numbers: E2F firefly: higher = more E2F reporter activity; Renilla normaliser: higher = more normaliser reporter signal
Rule for the call: 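Called active if the normalised E2F reporter went up by over 50%; the cutoff is arbitrary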
The screen tested about 21,000 reagents; below is an unselected part of those that have a named target and a result. In the full data, 18 (0.084%) are marked active. 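Raw counts without plate normalisation, one of two replicates; the ratio scores behind the calls were not deposited.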 A plus sign joins genes that one reagent is predicted to hit. Not given: the amount of reagent, the time to read-out.

Osi19 (Osiris 19) [DRSC12569] showed E2F firefly, rep 1 = 1.25e5; Renilla normaliser, rep 1 = 6753; inactive.
For Polr3F (RNA polymerase III subunit F) [DRSC15785], the values are E2F firefly, rep 1 = 1.67e5; Renilla normaliser, rep 1 = 7427; inactive.
After knock-down of Cht7 + tRNA:Cys-GCA-1-4 + tRNA:Lys-CTT-1-13 [DRSC08021], the screen gave E2F firefly, rep 1 = 1.17e5; Renilla normaliser, rep 1 = 3795; inactive.
mRpS6 (mitochondrial ribosomal protein S6) [DRSC08470] gave E2F firefly, rep 1 = 91122; Renilla normaliser, rep 1 = 3108; inactive.
Against CG3032 [DRSC18266] the deposit lists E2F firefly, rep 1 = 1.32e5; Renilla normaliser, rep 1 = 6210; inactive.
Nph (Nucleophosmin) [DRSC16342] scored E2F firefly, rep 1 = 1.25e5; Renilla normaliser, rep 1 = 6784; inactive.
Cad87A (Cadherin 87A) [DRSC16161] gave E2F firefly, rep 1 = 79052; Renilla normaliser, rep 1 = 3583; inactive.
Depletion of loopin-1 [DRSC06888] resulted in: E2F firefly, rep 1 = 72353; Renilla normaliser, rep 1 = 4018; inactive.
Against CG8910 [DRSC07414] the deposit lists E2F firefly, rep 1 = 1.34e5; Renilla normaliser, rep 1 = 5041; inactive.

3 neighbouring reagents from above, quoted:
Nph (Nucleophosmin) [DRSC16342] → E2F firefly, rep 1 = 1.25e5; Renilla normaliser, rep 1 = 6784; call = inactive
Cad87A (Cadherin 87A) [DRSC16161] → E2F firefly, rep 1 = 79052; Renilla normaliser, rep 1 = 3583; call = inactive
loopin-1 [DRSC06888] → E2F firefly, rep 1 = 72353; Renilla normaliser, rep 1 = 4018; call = inactive

More reagents follow.
Knock-down of Mob2 [DRSC09117] came out at: E2F firefly, rep 1 = 1.12e5; Renilla normaliser, rep 1 = 4297; inactive.
Mob2 [DRSC09119] showed E2F firefly, rep 1 = 1.39e5; Renilla normaliser, rep 1 = 4742; inactive.
After knock-down of Mob2 [DRSC09856] the results were E2F firefly, rep 1 = 60519; Renilla normaliser, rep 1 = 3213; inactive.
CG15098 [DRSC06527] showed E2F firefly, rep 1 = 1.32e5; Renilla normaliser, rep 1 = 5074; inactive.
With knock-down of ATP8A (ATPase 8A) [DRSC05421] the results were E2F firefly, rep 1 = 1.25e5; Renilla normaliser, rep 1 = 4820; inactive.
For ATP8A (ATPase 8A) [DRSC06643], the entry reads E2F firefly, rep 1 = 2762; Renilla normaliser, rep 1 = 216; inactive.
After knock-down of ATP8A (ATPase 8A) [DRSC06644], the record shows E2F firefly, rep 1 = 1.02e5; Renilla normaliser, rep 1 = 5057; inactive.
With knock-down of Unc50 (Unc50 RNA binding protein) [DRSC16561], the record shows E2F firefly, rep 1 = 1.46e5; Renilla normaliser, rep 1 = 6733; inactive.
With knock-down of CG44325 [DRSC18423], the record shows E2F firefly, rep 1 = 43065; Renilla normaliser, rep 1 = 3307; inactive.
Depletion of CG18132 [DRSC00518] gave: E2F firefly, rep 1 = 1.70e5; Renilla normaliser, rep 1 = 6450; inactive.
